Source: paper PMC11671533
Results are given in words; binding and its absence hold for the method and conditions named. In cells and extracts the contact can be indirect. Some results given as binding are weak or reduced against the parent protein; the word gives no strength. Sequences can lack the tags named with a protein.

Amino acid sequences for entries named in this document (tags omitted).
UniProt P30622: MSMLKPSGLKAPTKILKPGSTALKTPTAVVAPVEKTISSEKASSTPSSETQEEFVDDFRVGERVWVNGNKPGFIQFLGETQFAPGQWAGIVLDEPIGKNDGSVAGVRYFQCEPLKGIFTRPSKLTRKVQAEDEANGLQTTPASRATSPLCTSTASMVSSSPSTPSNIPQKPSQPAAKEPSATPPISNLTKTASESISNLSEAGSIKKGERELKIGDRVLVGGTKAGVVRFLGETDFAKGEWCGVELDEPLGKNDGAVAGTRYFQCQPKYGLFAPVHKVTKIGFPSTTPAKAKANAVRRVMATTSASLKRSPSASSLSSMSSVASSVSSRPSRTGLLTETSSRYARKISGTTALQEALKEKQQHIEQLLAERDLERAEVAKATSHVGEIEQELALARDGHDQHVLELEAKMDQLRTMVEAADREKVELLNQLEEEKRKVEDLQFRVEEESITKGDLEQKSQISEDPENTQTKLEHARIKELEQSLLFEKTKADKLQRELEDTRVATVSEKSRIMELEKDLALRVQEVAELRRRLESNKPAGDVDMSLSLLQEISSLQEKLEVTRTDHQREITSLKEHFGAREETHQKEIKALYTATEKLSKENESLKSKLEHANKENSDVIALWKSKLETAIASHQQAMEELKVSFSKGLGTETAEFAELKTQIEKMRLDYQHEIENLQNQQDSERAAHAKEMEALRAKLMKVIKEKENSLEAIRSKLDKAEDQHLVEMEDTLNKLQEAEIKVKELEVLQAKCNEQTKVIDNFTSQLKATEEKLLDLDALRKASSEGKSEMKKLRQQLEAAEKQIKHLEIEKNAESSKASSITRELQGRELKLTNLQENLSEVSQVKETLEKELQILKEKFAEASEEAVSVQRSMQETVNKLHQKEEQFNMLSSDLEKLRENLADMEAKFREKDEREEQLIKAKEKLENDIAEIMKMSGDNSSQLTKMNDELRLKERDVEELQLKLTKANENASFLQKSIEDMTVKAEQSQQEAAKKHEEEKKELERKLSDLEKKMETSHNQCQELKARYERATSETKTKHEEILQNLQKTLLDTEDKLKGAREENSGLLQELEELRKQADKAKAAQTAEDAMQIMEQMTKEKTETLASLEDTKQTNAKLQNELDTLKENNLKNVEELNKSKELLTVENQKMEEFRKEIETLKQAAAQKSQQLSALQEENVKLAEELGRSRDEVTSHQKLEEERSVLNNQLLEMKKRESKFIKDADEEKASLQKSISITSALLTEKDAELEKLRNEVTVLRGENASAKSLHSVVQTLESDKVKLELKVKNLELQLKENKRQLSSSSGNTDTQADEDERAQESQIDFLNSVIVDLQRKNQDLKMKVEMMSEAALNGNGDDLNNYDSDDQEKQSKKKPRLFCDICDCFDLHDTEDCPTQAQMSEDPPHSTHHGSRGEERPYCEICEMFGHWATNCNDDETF

B1: His-TFPI2 (protein, UniProt P48307 23-235)
chain: DAAQEPTGNNAEICLLPLDYGPCRALLLRYYYDRYTQSCRQFLYGGCEGNANNFYTWEACDDACWRIEKVPKVCRLQVSVDDQCEGSTEKYFFNLSSMTCEKFFSGGCHRNRIENRFPDEATCMGFCAPKKIPSFCYSPKDEGLCSANVTRYYFNPRYRTCDAFTYTGCGGNDNNFVSREDCKRACAKALKKKKKMPKLRFASRIRKIRKKQF
B2: His-TFPI2(ΔKD2) (protein, UniProt P48307)
chain: DAAQEPTGNNAEICLLPLDYGPCRALLLRYYYDRYTQSCRQFLYGGCEGNANNFYTWEACDDACWRIEKVPKVAPKKIPSFCYSPKDEGLCSANVTRYYFNPRYRTCDAFTYTGCGGNDNNFVSREDCKRACAKALKKKKKMPKLRFASRIRKIRKKQF
B3: His-TFPI2(ΔKD3) (protein, UniProt P48307)
chain: DAAQEPTGNNAEICLLPLDYGPCRALLLRYYYDRYTQSCRQFLYGGCEGNANNFYTWEACDDACWRIEKVPKVCRLQVSVDDQCEGSTEKYFFNLSSMTCEKFFSGGCHRNRIENRFPDEATCMGFCAPKKIPSFAKALKKKKKMPKLRFASRIRKIRKKQF
B4: His-TFPI2(ΔKD1) (protein, UniProt P48307)
chain: DAAQEPTGNNAEIWRIEKVPKVCRLQVSVDDQCEGSTEKYFFNLSSMTCEKFFSGGCHRNRIENRFPDEATCMGFCAPKKIPSFCYSPKDEGLCSANVTRYYFNPRYRTCDAFTYTGCGGNDNNFVSREDCKRACAKALKKKKKMPKLRFASRIRKIRKKQF

What follows are binders tested against Flag-CLIP1 (UniProt P30622) (assay: co-IP; HEK293T cells transfected with Flag-tagged CLIP1 and His-tagged TFPI2 or its mutants; cell protein extract precipitated with anti-FLAG primary antibody).

B1 was tested. Which binding did it give?
The binding was “binds”.

B2 was tested. Which binding did it give?
Its binding is “binds”.

Which binding does the source give for B3 here?
The binding was “binds”.

B4 was tested. Which binding did it give?
Its binding is “no binding”.
